Cleaved PARP in drug-treated melanoma cells

Source: doi:10.1371/journal.pone.0140310, primary screening data, rounded.

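Human melanoma cells were exposed to two drugs together for 72 h in 1,536-well plates and read by automated microscopy after fixing and staining. Each value is the cleaved-PARP-positive fraction of nuclei relative to DMSO-treated wells, in %, so that 100 equals the control and higher values mean more apoptosis. Every drug was used at one fixed concentration, the higher of two screened. No replicate spread is given; individual values may be noisy. The marker varies much from line to line, for technical or biological reasons.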 Only some of the drugs and lines screened are listed, without regard to their results. An entry leaves out what has no value listed here. A dash means that no value is listed here.

All values are for the listed drug together with GSK0660 (5 µM): COC(=O)c1sccc1S(=O)(=O)Nc1ccc(Nc2ccccc2)cc1OC

| Partner | WM451Lu | MeWo | UACC-62 | LB2518-MEL | 501mel | COLO 792 | SK-MEL-28 | LOX IMVI | SK-MEL-30 | WM115 | RVH-421 | COLO 800 | WM3526 | MZ2-MEL | G-361 |
|---|---|---|---|---|---|---|---|---|---|---|---|---|---|---|---|
| O=C(Nc1cccc(Cl)c1)Nc1ncc(CCNc2ncnc3ccsc23)s1 at 0.004 µM | 308 | 168 | 75.0 | 83.3 | 229 | 173 | 230 | 185 | 81.2 | 204 | 77.3 | 173 | 168 | 30.5 | 106 |
| Cc1cc(Nc2cc(N3CCN(C)CC3)nc(/C=C/c3ccccc3)n2)n[nH]1 at 0.2 µM | 35.1 | 122 | 259 | 98.9 | 90.9 | 122 | 108 | 105 | 203 | 126 | 217 | 323 | 107 | 113 | 152 |
| CO[C@@H]1[C@H](N(C)C(=O)c2ccccc2)C[C@H]2O[C@]1(C)n1c3ccccc3c3c4c(c5c6ccccc6n2c5c31)C(=O)NC4 at 0.4 µM | 316 | 71.5 | 265 | 235 | 154 | 169 | 207 | 156 | 96.3 | 632 | 85.8 | 395 | 247 | 226 | 139 |
| O=C(/C=C/c1cccnc1)NCCCCC1CCN(C(=O)c2ccccc2)CC1 at 0.05 µM | 128 | 48.6 | 110 | 1640 | 46.1 | 620 | 66.9 | 31.6 | 111 | 54.2 | 152 | 89.0 | 141 | 960 | 11900 |
| C=CCNC1=C2C[C@@H](C)C[C@H](OC)[C@H](O)[C@@H](C)/C=C(\C)[C@H](OC(N)=O)[C@@H](OC)/C=C\C=C(/C)C(=O)NC(=CC1=O)C2=O at 0.01 µM | 89.6 | 190 | 172 | 75.0 | 34.9 | 52.6 | 129 | 58.4 | 60.4 | 219 | 52.0 | 67.4 | 133 | 33.7 | 186 |
| Cn1cc(C2=C(c3cn(C4CCN(Cc5ccccn5)CC4)c4ccccc34)C(=O)NC2=O)c2ccccc21 at 4 µM | 434 | 151 | 167 | 280 | 117 | 81.5 | 341 | 113 | 81.7 | 98.5 | 191 | 114 | 153 | 53.9 | 124 |
| CCCCCCCCCCCC1=C(O)C(=O)C=C(O)C1=O at 6 µM | 97.8 | 55.8 | 103 | 59.4 | 39.1 | 73.2 | 60.9 | 104 | 84.7 | 96.4 | 129 | 103 | 28.3 | 52.4 | 70.9 |
| CS(=O)(=O)c1ccc(C(=O)Nc2ccc(Cl)c(-c3ccccn3)c2)c(Cl)c1 at 5 µM | 139 | 102 | 164 | 94.0 | 65.4 | 26.8 | 102 | 62.5 | 89.2 | 92.9 | 30.8 | 89.4 | 71.4 | 38.8 | 88.7 |
| Cc1cc(SCc2sc(-c3ccc(C(F)(F)F)c(F)c3)nc2C)ccc1OCC(=O)O at 10 µM | 149 | 85.2 | 105 | 66.2 | 151 | 165 | 31.3 | 66.0 | 97.1 | 54.1 | 128 | 53.8 | 118 | 98.4 | 104 |
| CCN(CC)CCNC(=O)c1c(C)[nH]c(/C=C2\C(=O)Nc3ccc(F)cc32)c1C at 2 µM | 403 | 137 | 140 | 72.3 | 186 | 395 | 128 | 116 | 234 | 181 | 211 | 384 | 231 | 19.0 | 154 |
| O=C(O)c1ccc2c(c1)nc(Nc1cccc(Cl)c1)c1ccncc12 at 2 µM | 170 | 235 | 267 | 88.3 | 33.7 | 118 | 85.5 | 173 | 196 | 79.0 | 231 | 76.2 | 258 | 216 | 116 |
| C[C@@H](Oc1cc(-c2cnn(C3CCNCC3)c2)cnc1N)c1c(Cl)ccc(F)c1Cl at 1 µM | 152 | 77.8 | 211 | 65.3 | 63.4 | 118 | 45.3 | 115 | 159 | 138 | 251 | 104 | 131 | 82.1 | 157 |
| C/C(O)=C(\C#N)C(=O)Nc1cc(Br)ccc1Br at 10 µM | 80.7 | 78.1 | 96.3 | 181 | 53.4 | 66.1 | 149 | 139 | 67.6 | 147 | 51.5 | 163 | 31.8 | 177 | 114 |
| O=c1[nH]nc(Sc2ncc([N+](=O)[O-])s2)n1-c1ccc2c(c1)OCCO2 at 1 µM | 188 | 78.2 | 155 | 87.5 | 93.1 | 40.5 | 75.2 | 77.5 | 112 | 324 | 61.2 | 81.1 | 123 | 81.0 | 128 |
| Nc1ncn([C@H]2C[C@H](O)[C@@H](CO)O2)c(=O)n1 at 0.5 µM | 410 | 360 | 168 | 158 | 106 | 80.9 | 33.9 | 80.1 | 99.6 | 137 | 127 | 107 | 50.7 | 194 | 108 |
| CN(c1ncccc1CNc1nc(Nc2ccc3c(c2)CC(=O)N3)ncc1C(F)(F)F)S(C)(=O)=O at 0.4 µM | 626 | 127 | 290 | 64.3 | 164 | 86.2 | 123 | 13.5 | 201 | 55.6 | 273 | 133 | 122 | 344 | 199 |
| CO[C@H]1C[C@@H]2CC[C@@H](C)[C@@](O)(O2)C(=O)C(=O)N2CCCC[C@H]2C(=O)O[C@H]([C@H](C)C[C@@H]2CC[C@@H](OCCO)[C@H](OC)C2)CC(=O)[C@H](C)/C=C(\C)[C@@H](O)[C@@H](OC)C(=O)[C@H](C)C[C@H](C)/C=C/C=C/C=C/1C at 0.1 µM | 385 | 73.0 | 261 | 70.6 | 162 | 98.1 | 180 | 132 | 228 | 131 | 127 | 140 | 459 | 89.2 | 176 |
| CCc1ccc(CCOc2ccc(CC3SC(=O)NC3=O)cc2)nc1 (configuration not stated) at 10 µM | 113 | 46.9 | 129 | 39.4 | 178 | 49.7 | 404 | 134 | 80.6 | 200 | 120 | 58.1 | 57.6 | 63.4 | 63.5 |
| O=C(Nc1ccccc1)c1cc([N+](=O)[O-])ccc1Cl at 10 µM | 75.2 | 60.9 | 119 | 71.8 | 174 | 96.9 | 141 | 33.6 | 115 | 121 | 122 | 102 | 171 | 123 | 87.3 |
| Cc1ccc(Nc2nccc(N(C)c3ccc4c(C)n(C)nc4c3)n2)cc1S(N)(=O)=O at 2 µM | 126 | 59.1 | 107 | 60.5 | 83.6 | 67.8 | 59.2 | 30.3 | 101 | 50.0 | 185 | 92.7 | 93.6 | 66.6 | 204 |
| c1cc(-c2cnn3cc(-c4ccc(OCCN5CCCCC5)cc4)cnc23)ccn1 at 2 µM | 519 | 56.3 | 247 | 97.9 | 213 | 62.2 | 143 | 156 | 120 | 290 | 48.2 | 76.7 | 104 | 49.5 | 187 |
| CC1(C)CCC(c2ccc(Cl)cc2)=C(CN2CCN(c3ccc(C(=O)NS(=O)(=O)c4ccc(N[C@H](CCN5CCOCC5)CSc5ccccc5)c(S(=O)(=O)C(F)(F)F)c4)cc3)CC2)C1 at 2 µM | 324 | 168 | 162 | 315 | 324 | 1290 | 249 | 89.4 | 221 | 53.8 | 157 | 153 | 222 | 303 | 130 |
| COCC[n+]1c2c(n(Cc3cnccn3)c1C)C(=O)c1ccccc1C2=O at 0.002 µM | 182 | 131 | 61.5 | 95.6 | 107 | 159 | 81.2 | 59.7 | 141 | 72.1 | 95.4 | 271 | 157 | 461 | 36.8 |
| C[C@]1(O)C[C@@H](c2nc(-c3ccc4ccc(-c5ccccc5)nc4c3)c3c(N)nccn32)C1 at 2 µM | 47.2 | 129 | 75.1 | 105 | 63.8 | 155 | 91.1 | 111 | 64.1 | 97.3 | 138 | 244 | 132 | 168 | 36.0 |
| CN(C)S(=O)(=O)c1ccc2c(c1)/C(=C/c1cc3c([nH]1)CCCC3)C(=O)N2 at 2 µM | 29.4 | 94.4 | 55.3 | 86.4 | 95.8 | 82.2 | 147 | 89.3 | 157 | 182 | 158 | 235 | 125 | 178 | 86.4 |
| COc1ccc(C2=N[C@@H](c3ccc(Cl)cc3)[C@@H](c3ccc(Cl)cc3)N2C(=O)N2CCNC(=O)C2)c(OC(C)C)c1 at 0.5 µM | 57.9 | 94.6 | 66.9 | 63.0 | 75.6 | 85.2 | 254 | 132 | 86.4 | 725 | 60.3 | 133 | 135 | 73.6 | 59.4 |
| O=C(Oc1ccc([N+](=O)[O-])cc1)N1CCC(C(O)(c2ccc3c(c2)OCO3)c2ccc3c(c2)OCO3)CC1 at 5 µM | 80.1 | 91.8 | 116 | 57.3 | 119 | 31.2 | 219 | 68.2 | 319 | 226 | 43.1 | 134 | 100 | 100 | 91.4 |
| COc1cc([C@@H]2c3cc4c(cc3[C@@H](O[C@@H]3O[C@@H]5CO[C@@H](C)O[C@H]5[C@H](O)[C@H]3O)[C@H]3COC(=O)[C@H]23)OCO4)cc(OC)c1O at 0.1 µM | 161 | 98.5 | 197 | - | - | 80.0 | 64.8 | 67.4 | 113 | 129 | 53.5 | 130 | 80.0 | - | 243 |
| COc1cc(Nc2ncc(F)c(Nc3ccc4c(n3)NC(=O)C(C)(C)O4)n2)cc(OC)c1OC at 2 µM | 109 | 94.1 | 56.2 | 89.4 | 123 | 136 | 84.7 | 171 | 96.1 | 135 | 168 | 111 | 100 | 154 | 46.3 |
| O=C(CCCCCCC(=O)Nc1ccccc1)NO at 0.4 µM | 225 | 68.7 | 134 | 69.3 | 141 | 85.0 | 196 | 92.7 | 78.2 | 109 | 47.3 | 247 | 92.4 | 40.1 | 23.5 |
| Cc1nc(Nc2ncc(C(=O)Nc3c(C)cccc3Cl)s2)cc(N2CCN(CCO)CC2)n1 at 0.02 µM | 28.1 | 46.6 | 278 | 66.3 | 124 | 47.8 | 67.6 | 226 | 142 | 158 | 139 | 124 | 95.0 | 278 | 92.2 |
| COc1cc(N2CCC(N3CCN(C)CC3)CC2)ccc1Nc1ncc(Cl)c(Nc2ccccc2S(=O)(=O)C(C)C)n1 at 0.4 µM | 42.1 | 187 | 187 | 215 | 143 | 140 | 335 | 90.0 | 113 | 124 | 106 | 243 | 170 | 147 | 66.3 |
| NCC(=O)Nc1ccc(-n2nc(C(F)(F)F)cc2-c2ccc3c(ccc4ccccc43)c2)cc1 at 5 µM | 46.6 | 83.9 | 222 | 121 | 27500 | 179 | 1200 | 53.1 | 2950 | 97.3 | 175 | 299 | 304 | 152 | 95.8 |
| Cn1nnc2c(C(N)=O)ncn2c1=O at 10 µM | 44.7 | 247 | 28.3 | 57.9 | 114 | 78.9 | 384 | 112 | 163 | 187 | 109 | 107 | 88.9 | 114 | 25.9 |
| O=C(O)C(=O)Nc1sc2c(c1C(=O)O)CCNC2 at 8.33 µM | 109 | 13.4 | 260 | - | - | 176 | 86.8 | 196 | 85.2 | 104 | 80.1 | 180 | 113 | - | 74.7 |

4 of the entries, repeated:

- CCN(CC)CCNC(=O)c1c(C)[nH]c(/C=C2\C(=O)Nc3ccc(F)cc32)c1C at 2 µM : WM451Lu: 403; MeWo: 137; UACC-62: 140; LB2518-MEL: 72.3; 501mel: 186; COLO 792: 395; SK-MEL-28: 128; LOX IMVI: 116; SK-MEL-30: 234; WM115: 181; RVH-421: 211; COLO 800: 384; WM3526: 231; MZ2-MEL: 19.0; G-361: 154
- Cc1cc(Nc2cc(N3CCN(C)CC3)nc(/C=C/c3ccccc3)n2)n[nH]1 at 0.2 µM : WM451Lu: 35.1; MeWo: 122; UACC-62: 259; LB2518-MEL: 98.9; 501mel: 90.9; COLO 792: 122; SK-MEL-28: 108; LOX IMVI: 105; SK-MEL-30: 203; WM115: 126; RVH-421: 217; COLO 800: 323; WM3526: 107; MZ2-MEL: 113; G-361: 152
- O=C(O)c1ccc2c(c1)nc(Nc1cccc(Cl)c1)c1ccncc12 at 2 µM : WM451Lu: 170; MeWo: 235; UACC-62: 267; LB2518-MEL: 88.3; 501mel: 33.7; COLO 792: 118; SK-MEL-28: 85.5; LOX IMVI: 173; SK-MEL-30: 196; WM115: 79.0; RVH-421: 231; COLO 800: 76.2; WM3526: 258; MZ2-MEL: 216; G-361: 116
- O=C(Nc1ccccc1)c1cc([N+](=O)[O-])ccc1Cl at 10 µM : WM451Lu: 75.2; MeWo: 60.9; UACC-62: 119; LB2518-MEL: 71.8; 501mel: 174; COLO 792: 96.9; SK-MEL-28: 141; LOX IMVI: 33.6; SK-MEL-30: 115; WM115: 121; RVH-421: 122; COLO 800: 102; WM3526: 171; MZ2-MEL: 123; G-361: 87.3